Reference: paper doi:10.1101/2024.09.11.24313360
Where two headings read alike, the source gives them in different places. Results are given in words; binding and its absence hold for the method and conditions named. Binding seen in cells or lysates may run through a third protein. Some binding calls cover weakened binding; strength is not graded here.

How the values were obtained:
Test in all cases: co-IP
TLR8 (human) [1] = target: T1, TLR8 (human) (UniProt Q9NR97)
T1 sequence: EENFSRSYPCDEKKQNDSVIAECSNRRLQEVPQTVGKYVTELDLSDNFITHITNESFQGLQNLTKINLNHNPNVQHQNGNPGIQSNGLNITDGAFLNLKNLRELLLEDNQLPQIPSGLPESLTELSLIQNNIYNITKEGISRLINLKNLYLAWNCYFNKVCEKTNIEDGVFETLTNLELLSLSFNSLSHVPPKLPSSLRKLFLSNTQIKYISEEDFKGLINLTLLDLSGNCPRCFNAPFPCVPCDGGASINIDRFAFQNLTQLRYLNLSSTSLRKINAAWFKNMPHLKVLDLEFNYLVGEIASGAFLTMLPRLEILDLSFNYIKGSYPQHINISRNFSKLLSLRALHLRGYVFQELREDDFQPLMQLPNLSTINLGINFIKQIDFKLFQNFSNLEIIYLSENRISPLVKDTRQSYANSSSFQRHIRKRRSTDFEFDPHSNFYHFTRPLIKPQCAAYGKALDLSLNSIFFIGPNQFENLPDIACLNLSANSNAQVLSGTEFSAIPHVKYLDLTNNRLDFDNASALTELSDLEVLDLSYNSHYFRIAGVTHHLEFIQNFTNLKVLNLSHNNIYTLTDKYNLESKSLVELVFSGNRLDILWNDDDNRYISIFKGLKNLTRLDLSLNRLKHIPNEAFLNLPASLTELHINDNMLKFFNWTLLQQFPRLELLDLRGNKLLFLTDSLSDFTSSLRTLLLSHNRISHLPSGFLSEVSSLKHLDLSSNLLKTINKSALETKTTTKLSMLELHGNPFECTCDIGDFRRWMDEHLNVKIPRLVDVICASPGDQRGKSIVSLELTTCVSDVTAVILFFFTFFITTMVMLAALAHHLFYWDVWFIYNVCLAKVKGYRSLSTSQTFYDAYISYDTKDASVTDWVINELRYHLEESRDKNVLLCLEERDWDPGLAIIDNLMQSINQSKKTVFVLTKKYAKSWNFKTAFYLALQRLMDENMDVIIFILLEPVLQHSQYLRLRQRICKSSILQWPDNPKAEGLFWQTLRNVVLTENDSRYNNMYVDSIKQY

TLR7 (human) = target: T2, TLR7 (human) (UniProt Q9NYK1)
T2 sequence: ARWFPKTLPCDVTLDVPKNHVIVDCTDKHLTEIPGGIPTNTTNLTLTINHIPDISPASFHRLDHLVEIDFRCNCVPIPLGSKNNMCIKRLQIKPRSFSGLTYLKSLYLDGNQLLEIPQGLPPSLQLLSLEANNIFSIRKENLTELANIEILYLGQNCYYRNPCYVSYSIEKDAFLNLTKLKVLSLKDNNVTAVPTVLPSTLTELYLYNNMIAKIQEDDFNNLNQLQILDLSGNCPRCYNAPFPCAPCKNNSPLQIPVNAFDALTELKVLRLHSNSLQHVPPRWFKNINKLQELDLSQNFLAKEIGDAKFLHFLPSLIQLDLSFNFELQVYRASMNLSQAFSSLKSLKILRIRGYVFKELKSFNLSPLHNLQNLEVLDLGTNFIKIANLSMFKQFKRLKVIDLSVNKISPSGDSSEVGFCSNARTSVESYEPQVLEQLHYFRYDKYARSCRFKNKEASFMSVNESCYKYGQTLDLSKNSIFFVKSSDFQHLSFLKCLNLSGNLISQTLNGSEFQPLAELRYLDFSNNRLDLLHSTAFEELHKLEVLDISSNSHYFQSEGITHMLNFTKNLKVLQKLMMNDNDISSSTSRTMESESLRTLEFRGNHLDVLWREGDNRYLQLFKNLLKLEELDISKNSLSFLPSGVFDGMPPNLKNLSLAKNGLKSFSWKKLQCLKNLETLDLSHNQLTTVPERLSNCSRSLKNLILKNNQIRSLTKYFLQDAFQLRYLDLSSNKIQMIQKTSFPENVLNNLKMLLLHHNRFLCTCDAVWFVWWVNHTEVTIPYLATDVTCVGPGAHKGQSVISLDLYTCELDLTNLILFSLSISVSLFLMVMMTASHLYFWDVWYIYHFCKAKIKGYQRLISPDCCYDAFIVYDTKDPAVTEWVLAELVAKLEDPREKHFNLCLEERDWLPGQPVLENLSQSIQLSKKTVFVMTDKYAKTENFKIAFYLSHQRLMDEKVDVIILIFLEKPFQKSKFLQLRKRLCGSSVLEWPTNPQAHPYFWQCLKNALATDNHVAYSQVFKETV

TLR8 (human) [2] = target: T1, TLR8 (human); remark: listed apart in the source

binding (TLR8 (human) [1]): binds | binding (TLR7 (human)): binds | binding (TLR8 (human) [2]): binds
B1: wild-type UNC93B1 (protein, UniProt Q9H1C4 1-597)
chain: MEAEPPLYPMAGAAGPQGDEDLLGVPDGPEAPLDELVGAYPNYNEEEEERRYYRRKRLGVLKNVLAASAGGMLTYGVYLGLLQMQLILHYDETYREVKYGNMGLPDIDSKMLMGINVTPIAALLYTPVLIRFFGTKWMMFLAVGIYALFVSTNYWERYYTLVPSAVALGMAIVPLWASMGNYITRMAQKYHEYSHYKEQDGQGMKQRPPRGSHAPYLLVFQAIFYSFFHLSFACAQLPMIYFLNHYLYDLNHTLYNVQSCGTNSHGILSGFNKTVLRTLPRSGNLIVVESVLMAVAFLAMLLVLGLCGAAYRPTEEIDLRSVGWGNIFQLPFKHVRDYRLRHLVPFFIYSGFEVLFACTGIALGYGVCSVGLERLAYLLVAYSLGASAASLLGLLGLWLPRPVPLVAGAGVHLLLTFILFFWAPVPRVLQHSWILYVAAALWGVGSALNKTGLSTLLGILYEDKERQDFIFTIYHWWQAVAIFTVYLGSSLHMKAKLAVLLVTLVAAAVSYLRMEQKLRRGVAPRQPRIPRPQHKVRGYRYLEEDNSDESDAEGEHGDGAEEEAPPAGPRPGPEPAGLGRRPCPYEQAQGGDGPEEQ
